This is an account of results in article doi:10.1101/2022.10.26.513826.

Results are given in words; binding and its absence hold for the method and conditions named. Some entries that bind do so weakly or less than the wild type.

The assay has as its target HEAT SHOCK …ON FACTOR A7b (HSFA7b) (Arabidopsis thaliana) (UniProt Q9M1V5). Description: two-hybrid.

B1: HEAT SHOCK …ON FACTOR A7b (HSFA7b) (protein, UniProt Q9M1V5 1-282)
chain: MDPSSSSRARSMPPPVPMEGLQEAGPSPFLTKTFEMVGDPNTNHIVSWNRGGISFVVWDPHSFSATILPLYFKHNNFSSFVRQLNTYGFRKIEAERWEFMNEGFLMGQRDLLKSIKRRTSSSSPPSLNYSQSQPEAHDPGVELPQLREERHVLMMEISTLRQEEQRARGYVQAMEQRINGAEKKQRHMMSFLRRAVENPSLLQQIFEQKRDREEAAMIDQAGLIKMEEVEHLSELEALALEMQGYGRQRTDGVERELDDGFWEELLMNNENSDEEEANVKQD
Consider B1, for which the binding entry is “binds”.
